Results deposited as PubChem BioAssay AID652259 (Drosophila RNAi Screening Center, 2013)
The screen tested about 22,000 reagents; this is an unselected part of those that have a named target and a result. Over the whole deposit, 233 (1.1%) were called active. 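Light values are raw, unnormalised plate reads; the ratio scores behind the reporter calls were not deposited.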 A number with no mark means an inactive call. The numbers tell different reagents against one gene apart. A plus sign joins genes that one reagent is predicted to hit. Not stated in the record: the amount of reagent, the time to read-out, the dose of the treatment.

Purpose: 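Knock-downs that push a Wingless-driven reporter up or down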 (primary screen)
Cells: Drosophila clone 8 imaginal disc epithelial cells
Reagent: long dsRNA against Drosophila genes
Treatment: pathway stimulated by co-transfected Wingless expression plasmid
Measurement: 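Dual luciferase reads per well after Wingless plasmid stimulation: reporter firefly light and Renilla control light; activity is firefly divided by Renilla, a ratio not deposited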
Reading the numbers: firefly reporter light: higher = more Wg reporter light, before normalisation; Renilla control light: higher = more transfected or surviving cells
Rule for the call: 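a knock-down is a candidate when at least two out of four statistical tests show it departing from its plate mean; one test alone signals a weak candidate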
Meaning of the calls: active = candidate regulator (raises or lowers reporter); inactive = not a candidate

Tret1-2 (GeneID 36249) gave firefly reporter light, replicate 1 = 9221; Renilla control light, replicate 1 = 3712. Against PIG-G (GeneID 35685), the entry reads firefly reporter light, replicate 1 = 20471; Renilla control light, replicate 1 = 6992. CG15142 (GeneID 35059) showed firefly reporter light, replicate 1 = 1476; firefly reporter light, replicate 2 = 5383; Renilla control light, replicate 1 = 699; Renilla control light, replicate 2 = 2236. CG32572 (GeneID 32657) #1 scored firefly reporter light, replicate 1 = 21289; Renilla control light, replicate 1 = 8368. With knock-down of CG32572 (GeneID 32657) #2, the screen gave firefly reporter light, replicate 1 = 19676; Renilla control light, replicate 1 = 7520. Knock-down of PpD3 (GeneID 49779) resulted in: firefly reporter light, replicate 1 = 9840; Renilla control light, replicate 1 = 3130.

After knock-down of CG6931 (GeneID 39363) the results were firefly reporter light, replicate 1 = 8039; Renilla control light, replicate 1 = 3446. Depletion of CG17325 + CG42305 resulted in: firefly reporter light, replicate 1 = 2614; firefly reporter light, replicate 2 = 10467; Renilla control light, replicate 1 = 588; Renilla control light, replicate 2 = 3651.

Targets listed so far whose target name starts with C or c:
CG15142 (GeneID 35059) → firefly reporter light, replicate 1 = 1476; firefly reporter light, replicate 2 = 5383; Renilla control light, replicate 1 = 699; Renilla control light, replicate 2 = 2236
CG32572 (GeneID 32657) #1 → firefly reporter light, replicate 1 = 21289; Renilla control light, replicate 1 = 8368
CG32572 (GeneID 32657) #2 → firefly reporter light, replicate 1 = 19676; Renilla control light, replicate 1 = 7520
CG6931 (GeneID 39363) → firefly reporter light, replicate 1 = 8039; Renilla control light, replicate 1 = 3446
CG17325 + CG42305 → firefly reporter light, replicate 1 = 2614; firefly reporter light, replicate 2 = 10467; Renilla control light, replicate 1 = 588; Renilla control light, replicate 2 = 3651

More entries:
CG43181 (GeneID 12798292) showed firefly reporter light, replicate 1 = 2421; Renilla control light, replicate 1 = 812. Against Spindly (GeneID 33578), the values are firefly reporter light, replicate 1 = 5239; firefly reporter light, replicate 2 = 7082; Renilla control light, replicate 1 = 1032; Renilla control light, replicate 2 = 1013. With knock-down of Bulli (GeneID 38734), the record shows firefly reporter light, replicate 1 = 1376; firefly reporter light, replicate 2 = 5440; Renilla control light, replicate 1 = 1069; Renilla control light, replicate 2 = 2115. With knock-down of AANATL2 (GeneID 33874), the record shows firefly reporter light, replicate 1 = 2147; firefly reporter light, replicate 2 = 7155; Renilla control light, replicate 1 = 544; Renilla control light, replicate 2 = 1932. Silencing of CG2145 (GeneID 32027) came out at: firefly reporter light, replicate 1 = 3804; firefly reporter light, replicate 2 = 7943; Renilla control light, replicate 1 = 1136; Renilla control light, replicate 2 = 2283. For Tengl2 (GeneID 318044), the values are firefly reporter light, replicate 1 = 8.37e5; firefly reporter light, replicate 2 = 7.98e5; Renilla control light, replicate 1 = 3.52e5; Renilla control light, replicate 2 = 3.78e5.

Depletion of ND-B14.5AL (GeneID 40477) came out at: firefly reporter light, replicate 1 = 14875; Renilla control light, replicate 1 = 5235. CG14556 (GeneID 43176) scored firefly reporter light, replicate 1 = 19785; Renilla control light, replicate 1 = 14787. Oct-TyrR (GeneID 42452) scored firefly reporter light, replicate 1 = 17997; Renilla control light, replicate 1 = 4000. For Ugt305A1 (GeneID 59217), the entry reads firefly reporter light, replicate 1 = 4264; Renilla control light, replicate 1 = 1626. After knock-down of CG34423 + Mthfs the results were firefly reporter light, replicate 1 = 4768; firefly reporter light, replicate 2 = 7040; Renilla control light, replicate 1 = 648; Renilla control light, replicate 2 = 2281. After knock-down of gem (GeneID 36064) #1 the results were firefly reporter light, replicate 1 = 19238; Renilla control light, replicate 1 = 2983.

gem (GeneID 36064) #2 gave firefly reporter light, replicate 1 = 2666; firefly reporter light, replicate 2 = 7475; Renilla control light, replicate 1 = 656; Renilla control light, replicate 2 = 2043. CG7798 (GeneID 36798) scored firefly reporter light, replicate 1 = 6585; Renilla control light, replicate 1 = 2132. Against CG18581 (GeneID 39633), the entry reads firefly reporter light, replicate 1 = 2536; Renilla control light, replicate 1 = 1491. CG30350 (GeneID 246556) scored firefly reporter light, replicate 1 = 4332; firefly reporter light, replicate 2 = 8316; Renilla control light, replicate 1 = 800; Renilla control light, replicate 2 = 2763. For CG14135 (GeneID 39316), the entry reads firefly reporter light, replicate 1 = 6295; Renilla control light, replicate 1 = 3761.
